In article PMC9346516:
No constants are given. Whether binding was seen depends on the method and setting. In cells and extracts the contact can be indirect. These calls come from enrichment with a bait or labelling near it, and not all partners need be listed.

Molecular target: ARAP1 (human (endogenous in fetal RPE cells))
Test: affinity purification with mass spectrometry; goat anti-ARAP1 (Abcam ab5912) cross-linked with BS3 to Protein G magnetic beads; NP-40 lysate of cultured human fetal RPE cells, pre-cleared on beads; normal goat IgG immunoprecipitation in parallel as control; LC-MS/MS of five independent samples

| Binder | binding |
| --- | --- |
| CLTA (protein, UniProt P09496 1-248) MAELDPFGAPAGAPGGPALGNGVAGAGEEDPAAAFLAQQESEIAGIENDEAFAILDGGAPGPQPHGEPPGGPDAVDGVMNGEYYQESNGPTDSYAAISQVDRLQSEPESIRKWREEQMERLEALDANSRKQEAEWKEKAIKELEEWYARQDEQLQKTKANNRVADEAFYKQPFADVIGYVTNINHPCYSLEQAAEEAFVNDIDESSPGTEWERVARLCDFNPKSSKQAKDVSRMRSVLISLKQAPLVH | binds |
| HIP1 (protein, UniProt O00291 1-1037) MDRMASSMKQVPNPLPKVLSRRGVGAGLEAAERESFERTQTVSINKAINTQEVAVKEKHARTCILGTHHEKGAQTFWSVVNRLPLSSNAVLCWKFCHVFHKLLRDGHPNVLKDSLRYRNELSDMSRMWGHLSEGYGQLCSIYLKLLRTKMEYHTKNPRFPGNLQMSDRQLDEAGESDVNNFFQLTVEMFDYLECELNLFQTVFNSLDMSRSVSVTAAGQCRLAPLIQVILDCSHLYDYTVKLLFKLHSCLPADTLQGHRDRFMEQFTKLKDLFYRSSNLQYFKRLIQIPQLPENPPNFLRASALSEHISPVVVIPAEASSPDSEPVLEKDDLMDMDASQQNLFDNKFDDIFGSSFSSDPFNFNSQNGVNKDEKDHLIERLYREISGLKAQLENMKTESQRVVLQLKGHVSELEADLAEQQHLRQQAADDCEFLRAELDELRRQREDTEKAQRSLSEIERKAQANEQRYSKLKEKYSELVQNHADLLRKNAEVTKQVSMARQAQVDLEREKKELEDSLERISDQGQRKTQEQLEVLESLKQELATSQRELQVLQGSLETSAQSEANWAAEFAELEKERDSLVSGAAHREEELSALRKELQDTQLKLASTEESMCQLAKDQRKMLLVGSRKAAEQVIQDALNQLEEPPLISCAGSADHLLSTVTSISSCIEQLEKSWSQYLACPEDISGLLHSITLLAHLTSDAIAHGATTCLRAPPEPADSLTEACKQYGRETLAYLASLEEEGSLENADSTAMRNCLSKIKAIGEELLPRGLDIKQEELGDLVDKEMAATSAAIETATARIEEMLSKSRAGDTGVKLEVNERILGCCTSLMQAIQVLIVASKDLQREIVESGRGTASPKEFYAKNSRWTEGLISASKAVGWGATVMVDAADLVVQGRGKFEELMVCSHEIAASTAQLVAASKVKADKDSPNLAQLQQASRGVNQATAGVVASTISGKSQIEETDNMDFSSMTLTQIKRQEMDSQVRVLELENELQKERQKLGELRKKHYELAGVAEGWEEGTEASPPTLQEVVTEKE | binds |
| STON2 (protein, UniProt Q8WXE9 1-905) MTTLDHVIATHQSEWVSFNEEPPFPAHSQGGTEEHLPGLSSSPDQSESSSGENHVVDGGSQDHSHSEQDDSSEKMGLISEAASPPGSPEQPPPDLASAISNWVQFEDDTPWASTSPPHQETAETALPLTMPCWTCPSFDSLGRCPLTSESSWTTHSEDTSSPSFGCSYTDLQLINAEEQTSGQASGADSTDNSSSLQEDEEVEMEAISWQASSPAMNGHPAPPVTSARFPSWVTFDDNEVSCPLPPVTSPLKPNTPPSASVIPDVPYNSMGSFKKRDRPKSTLMNFSKVQKLDISSLNRTPSVTEASPWRATNPFLNETLQDVQPSPINPFSAFFEEQERRSQNSSISSTTGKSQRDSLIVIYQDAISFDDSSKTQSHSDAVEKLKQLQIDDPDHFGSATLPDDDPVAWIELDAHPPGSARSQPRDGWPMMLRIPEKKNIMSSRHWGPIFVKLTDTGYLQLYYEQGLEKPFREFKLEICHEISEPRLQNYDENGRIHSLRIDRVTYKEKKKYQPKPAVAHTAEREQVIKLGTTNYDDFLSFIHAVQDRLMDLPVLSMDLSTVGLNYLEEEITVDVRDEFSGIVSKGDNQILQHHVLTRIHILSFLSGLAECRLGLNDILVKGNEIVLRQDIMPTTTTKWIKLHECRFHGCVDEDVFHNSRVILFNPLDACRFELMRFRTVFAEKTLPFTLRTATSVNGAEVEVQSWLRMSTGFSANRDPLTQVPCENVMIRYPVPSEWVKNFRRESVLGEKSLKAKVNRGASFGSTSVSGSEPVMRVTLGTAKYEHAFNSIVWRINRLPDKNSASGHPHCFFCHLELGSDREVPSRFANHVNVEFSMPTTSASKASVRSISVEDKTDVRKWVNYSAHYSYQVALGSIWLMLPTPFVHPTTLPLLFLLAMLTMFAW | binds |
| DAB2 (protein, UniProt P98082 1-770) MSNEVETSATNGQPDQQAAPKAPSKKEKKKGPEKTDEYLLARFKGDGVKYKAKLIGIDDVPDARGDKMSQDSMMKLKGMAAAGRSQGQHKQRIWVNISLSGIKIIDEKTGVIEHEHPVNKISFIARDVTDNRAFGYVCGGEGQHQFFAIKTGQQAEPLVVDLKDLFQVIYNVKKKEEEKKKIEEASKAVENGSEALMILDDQTNKLKSGVDQMDLFGDMSTPPDLNSPTESKDILLVDLNSEIDTNQNSLRENPFLTNGITSCSLPRPTPQASFLPENAFSANLNFFPTPNPDPFRDDPFTQPDQSTPSSFDSLKSPDQKKENSSSSSTPLSNGPLNGDVDYFGQQFDQISNRTGKQEAQAGPWPFSSSQTQPAVRTQNGVSEREQNGFSVKSSPNPFVGSPPKGLSIQNGVKQDLESSVQSSPHDSIAIIPPPQSTKPGRGRRTAKSSANDLLASDIFAPPVSEPSGQASPTGQPTALQPNPLDLFKTSAPAPVGPLVGLGGVTVTLPQAGPWNTASLVFNQSPSMAPGAMMGGQPSGFSQPVIFGTSPAVSGWNQPSPFAASTPPPVPVVWGPSASVAPNAWSTTSPLGNPFQSNIFPAPAVSTQPPSMHSSLLVTPPQPPPRAGPPKDISSDAFTALDPLGDKEIKDVKEMFKDFQLRQPPAVPARKGEQTSSGTLSAFASYFNSKVGIPQENADHDDFDANQLLNKINEPPKPAPRQVSLPVTKSTDNAFENPFFKDSFGSSQASVASSQPVSSEMYRDPFGNPFA | binds |
| LRCH3 (protein, UniProt Q96II8 1-777) MAAAGLVAVAAAAEYSGTVASGGNLPGVHCGPSSGAGPGFGPGSWSRSLDRALEEAAVTGVLSLSGRKLREFPRGAANHDLTDTTRADLSRNRLSEIPIEACHFVSLENLNLYQNCIRYIPEAILNLQALTFLNISRNQLSTLPVHLCNLPLKVLIASNNKLVSLPEEIGHLRHLMELDVSCNEIQTIPSQIGNLEALRDLNVRRNHLVHLPEELAELPLIRLDFSCNKITTIPVCYRNLRHLQTITLDNNPLQSPPAQICIKGKVHIFKYLNIQACKIAPDLPDYDRRPLGFGSCHEELYSSRPYGALDSGFNSVDSGDKRWSGNEPTDEFSDLPLRVAEITKEQRLRRESQYQENRGSLVVTNGGVEHDLDQIDYIDSCTAEEEEAEVRQPKGPDPDSLSSQFMAYIEQRRISHEGSPVKPVAIREFQKTEDMRRYLHQNRVPAEPSSLLSLSASHNQLSHTDLELHQRREQLVERTRREAQLAALQYEEEKIRTKQIQRDAVLDFVKQKASQSPQKQHPLLDGVDGECPFPSRRSQHTDDSALCMSLSGLNQVGCAATLPHSSAFTPLKSDDRPNALLSSPATETVHHSPAYSFPAAIQRNQPQRPESFLFRAGVRAETNKGHASPLPPSAAPTTDSTDSITGQNSRQREEELELIDQLRKHIEYRLKVSLPCDLGAALTDGVVLCHLANHVRPRSVPSIHVPSPAVPKLTMAKCRRNVENFLEACRKIGVPQEQLCLPLHILEEKGLSQVAVTVQALLELAPPKQQQHQLSAV | binds |
| ankycorbin (protein, UniProt Q9P0K7 1-980) MKSLKAKFRKSDTNEWNKNDDRLLQAVENGDAEKVASLLGKKGASATKHDSEGKTAFHLAAAKGHVECLRVMITHGVDVTAQDTTGHSALHLAAKNSHHECIRKLLQSKCPAESVDSSGKTALHYAAAQGCLQAVQILCEHKSPINLKDLDGNIPLLLAVQNGHSEICHFLLDHGADVNSRNKSGRTALMLACEIGSSNAVEALIKKGADLNLVDSLGYNALHYSKLSENAGIQSLLLSKISQDADLKTPTKPKQHDQVSKISSERSGTPKKRKAPPPPISPTQLSDVSSPRSITSTPLSGKESVFFAEPPFKAEISSIRENKDRLSDSTTGADSLLDISSEADQQDLLSLLQAKVASLTLHNKELQDKLQAKSPKEAEADLSFDSYHSTQTDLGPSLGKPGETSPPDSKSSPSVLIHSLGKSTTDNDVRIQQLQEILQDLQKRLESSEAERKQLQVELQSRRAELVCLNNTEISENSSDLSQKLKETQSKYEEAMKEVLSVQKQMKLGLVSPESMDNYSHFHELRVTEEEINVLKQDLQNALEESERNKEKVRELEEKLVEREKGTVIKPPVEEYEEMKSSYCSVIENMNKEKAFLFEKYQEAQEEIMKLKDTLKSQMTQEASDEAEDMKEAMNRMIDELNKQVSELSQLYKEAQAELEDYRKRKSLEDVTAEYIHKAEHEKLMQLTNVSRAKAEDALSEMKSQYSKVLNELTQLKQLVDAQKENSVSITEHLQVITTLRTAAKEMEEKISNLKEHLASKEVEVAKLEKQLLEEKAAMTDAMVPRSSYEKLQSSLESEVSVLASKLKESVKEKEKVHSEVVQIRSEVSQVKREKENIQTLLKSKEQEVNELLQKFQQAQEELAEMKRYAESSSKLEEDKDKKINEMSKEVTKLKEALNSLSQLSYSTSSSKRQSQQLEALQQQVKQLQNQLAECKKQHQEVISVYRMHLLYAVQGQMDEDVQKVLKQILTMCKNQSQKK | binds |
